Experimental data reported in patent publication US20210128609A1, “ONCOLOGY TREATMENTS USING ZINC AGENTS” (XYLONIX IP HOLDINGS PTE. LTD., priority 2018, published 2021).

How the values were obtained:
Format in all cases: cell-based
Details in all cases: 96 h
A549 = assay: CellTiter-Glo cell viability, A549
Procedure: (§1) The 50% inhibitory concentration (IC50) was determined in the cancer cell lines using CellTiter-Glo luminescent cell viability assay after incubation with different concentrations of active agents. Each cell line was treated with active Zn(II) agent, a standard chemotherapy drug as reference control, and culture medium as vehicle control. Cell Lines. All cell lines were cultured in media supplemented with 10-15% FBS, at a temperature of 37° C., 5% CO2, and 95% humidity. The reference control drug for all cell lines was cisplatin, to be used for genomic analysis. The cell lines tested, the tissue of origin are shown below in Table 1: Procedure for Determining Half Maximal Inhibition Concentration IC50 • 1. Harvested cells during the logarithmic growth period and count cell number using Count-star. • 2. Adjusted cell concentrations to 4.44×10^4 cells/mL with respective culture medium. • 3. Added 90 μL cell suspensions to two 96-well plates (plates A and B) with the final cell density of 4×10^3 cells/well. (cell concentration was adjusted according to the data base or density optimization assay.) • 4a. […]

SK-OV-3 = assay: CellTiter-Glo cell viability, SK-OV-3
Procedure: as §1

MCF7 = assay: CellTiter-Glo cell viability, MCF7
Procedure: as §1

HeLa = assay: CellTiter-Glo cell viability, HeLa
Procedure: as §1

SMILES: N.N.[Cl][Pt][Cl] [Cisplatin]
- Absolute IC50 (A549): 0.88 µg/mL
- Absolute IC50 (SK-OV-3): 0.54 µg/mL
- Absolute IC50 (MCF7): 1.64 µg/mL
- Absolute IC50 (HeLa): 0.05 µg/mL
